This experiment has as its system L1210 leukemia ip in BDF1 mice, survival T/C. Briefly: NCI In Vivo Anticancer Drug Screen. Data for tumor model L1210 Leukemia (intraperitoneal) in B6D2F1 (BDF1) mice. To be noted: higher T/C = longer survival.
Where [1] appears, read: T/C endpoint: mean survival time, dose: 2.0 mg/kg/injection, schedule: Q04DX003 (ip), vehicle: saline.
Setting [2] is: T/C endpoint: mean survival time, dose: 7.5 mg/kg/injection, schedule: Q01DX001 (ip), vehicle: saline.
[3] abbreviates: T/C endpoint: mean survival time, dose: 200.0 mg/kg/injection, schedule: Q01DX001 (ip), vehicle: saline.
Where [4] appears, read: T/C endpoint: mean survival time, dose: 400.0 mg/kg/injection, schedule: Q01DX001 (ip), vehicle: saline.
Where [5] appears, read: T/C endpoint: mean survival time, dose: 100.0 mg/kg/injection, schedule: Q04DX003 (ip), vehicle: saline with Tween-80.
[6] abbreviates: T/C endpoint: mean survival time, dose: 200.0 mg/kg/injection, schedule: Q04DX003 (ip), vehicle: saline with Tween-80.
The mark [7] stands for this setting: T/C endpoint: mean survival time, dose: 400.0 mg/kg/injection, schedule: Q04DX003 (ip), vehicle: saline with Tween-80.

The list shows only some results of the screen, not a fair sample: it gathers tests that were run many times, whatever their T/C, doses with no T/C, and many T/C values between a quarter and a half above the control. Other doses and runs of a compound stand elsewhere. T/C: endpoint of the treated group in % of that of the vehicle group. Some entries give survivors of the animals treated and no T/C: the source holds a T/C of zero for them, seemingly a mark for toxic or unscored doses. Some survivor counts are full or nearly so, which does not show that the dose was tolerated: the source hardly ever lists a survival T/C far under the control, and the zero likely stands for such cases as well. Counts of survivors are from the toxicity check (mostly the fifth day) where no day follows; animals may have died later. Schedules are NCI's codes, taken here to give the interval after Q, in days (D) or hours (H), and the number of doses after X. Some doses were run more than once; their values stand side by side, smallest first. Some schedules carry Z or #; the key to these is not given. For survival time, the PubChem record calls one and a half times the control and up active, and a quarter to a half above the control has no call in these data; cut-offs in other NCI protocols can differ. Some T/C values are followed by the survivors on the day toxicity was checked, most often the fifth; where none is given, no animal had died by that day.

Turning to `COc1cc2c(c(OC)c1OC)-c1ccc(OC)c(=O)cc1[C@@H](NC(C)=O)CC2`, the T/C reads like this: (T/C endpoint: mean survival time, dose: 0.5 mg/kg/injection, schedule: Q04DX003 (ip), vehicle: saline) 134 % of control; (T/C endpoint: mean survival time, dose: 0.5 mg/kg/injection, schedule: Q08DX002 (ip), vehicle: saline) 125 % of control; (T/C endpoint: mean survival time, dose: 1.0 mg/kg/injection, schedule: Q01DX001 (ip), vehicle: saline) 126 % of control; (T/C endpoint: mean survival time, dose: 1.0 mg/kg/injection, schedule: Q04DX003 (ip), vehicle: saline) 141 % of control; (T/C endpoint: mean survival time, dose: 1.0 mg/kg/injection, schedule: Q08DX002 (ip), vehicle: saline) 131 % of control; (T/C endpoint: mean survival time, dose: 2.0 mg/kg/injection, schedule: Q01DX001 (ip), vehicle: saline) 132 % of control. In addition, the T/C under setting [1] was 128 % of control [9 of 10 alive]; the T/C (T/C endpoint: mean survival time, dose: 2.0 mg/kg/injection, schedule: Q08DX002 (ip), vehicle: saline) is 129 % of control [9 of 10 alive]; the T/C (T/C endpoint: mean survival time, dose: 2.4 mg/kg/injection, schedule: Q## X032 (ip), vehicle: saline) was 133 % of control; the T/C (T/C endpoint: mean survival time, dose: 2.5 mg/kg/injection, schedule: Q01DX001 (ip), vehicle: saline) was 134 % of control; the T/C (T/C endpoint: mean survival time, dose: 3.0 mg/kg/injection, schedule: Q## X004 (ip), vehicle: saline) was 141 % of control; the T/C (T/C endpoint: mean survival time, dose: 4.0 mg/kg/injection, schedule: Q01DX001 (ip), vehicle: saline) was 127 % of control [7 of 10 alive]. Further, the T/C was 146 % of control [9 of 10 alive] (T/C endpoint: mean survival time, dose: 5.0 mg/kg/injection, schedule: Q01DX001 (ip), vehicle: saline); 143 % of control [8 of 10 alive] under setting [2]; 132 % of control (T/C endpoint: mean survival time, dose: 250.0 micrograms/kg/injection, schedule: Q01DX009 (ip), vehicle: saline); 135 % of control [9 of 10 alive] (T/C endpoint: mean survival time, dose: 250.0 micrograms/kg/injection, schedule: Q03HX008 (ip), vehicle: saline); 136 % of control (T/C endpoint: mean survival time, dose: 500.0 micrograms/kg/injection, schedule: Q01DX009 (ip), vehicle: saline); 127 % of control (T/C endpoint: median survival time, dose: 0.16 mg/kg/injection, schedule: Q01DX009 (ip), vehicle: saline). Moreover, the survivor count is 3 of 6 under setting [1]; 2 of 10 (T/C endpoint: mean survival time, dose: 4.0 mg/kg/injection, schedule: Q01DX005 (oral), vehicle: saline); 8 of 10 and 6 of 6 (T/C endpoint: mean survival time, dose: 4.0 mg/kg/injection, schedule: Q04DX003 (ip), vehicle: saline); 8 of 10 (T/C endpoint: mean survival time, dose: 5.4 mg/kg/injection, schedule: Q## X032 (ip), vehicle: saline); 0 of 6 and 1 of 6 under setting [2]; 5 of 10 (T/C endpoint: mean survival time, dose: 8.0 mg/kg/injection, schedule: Q01DX001 (ip), vehicle: saline). In addition, the survivor count (T/C endpoint: mean survival time, dose: 8.0 mg/kg/injection, schedule: Q01DX001 (iv), vehicle: saline) is listed as 0 of 10; the survivor count (T/C endpoint: mean survival time, dose: 8.0 mg/kg/injection, schedule: Q08DX002 (ip), vehicle: saline) is listed as 3 of 10; the survivor count (T/C endpoint: mean survival time, dose: 11.2 mg/kg/injection, schedule: Q01DX001 (ip), vehicle: saline) is 0 of 6 and 1 of 6; the survivor count (T/C endpoint: mean survival time, dose: 11.25 mg/kg/injection, schedule: Q01DX001 (ip), vehicle: saline) was 1 of 10; the survivor count (T/C endpoint: mean survival time, dose: 16.0 mg/kg/injection, schedule: Q01DX001 (oral), vehicle: saline) is listed as 1 of 10; the survivor count (T/C endpoint: mean survival time, dose: 32.0 mg/kg/injection, schedule: Q01DX001 (oral), vehicle: saline) is 0 of 10. Further, the survivor count is, setting by setting: (T/C endpoint: mean survival time, dose: 500.0 micrograms/kg/injection, schedule: Q03HX008 (ip), vehicle: saline) 0 of 10; (T/C endpoint: mean survival time, dose: 500.0 micrograms/kg/injection, schedule: Q03HX016 (ip), vehicle: saline) 0 of 10; (T/C endpoint: mean survival time, dose: 500.0 micrograms/kg/injection, schedule: Q03HX024 (ip), vehicle: saline) 0 of 10; (T/C endpoint: mean survival time, dose: 1000.0 micrograms/kg/injection, schedule: Q03HX008 (ip), vehicle: saline) 0 of 10; (T/C endpoint: mean survival time, dose: 1000.0 micrograms/kg/injection, schedule: Q03HX016 (ip), vehicle: saline) 0 of 10.
`N=c1c2ncn(C3OC(CO)C(O)C3O)c2ncn1O` (stereo not drawn): the survivor count runs as follows: under setting [3], 0 of 4; (T/C endpoint: mean survival time, dose: 300.0 mg/kg/injection, schedule: Q01DX001 (ip), vehicle: saline) 2 of 6; under setting [4], 0 of 4.
Consider `CC1([CH2][Hg][Cl])Cc2ccccc2O1` (stereo not drawn), for which the survivor count was 4 of 6 (T/C endpoint: mean survival time, dose: 12.5 mg/kg/injection, schedule: Q04DX003 (ip), vehicle: saline with Tween-80); 1 of 6 (T/C endpoint: mean survival time, dose: 25.0 mg/kg/injection, schedule: Q04DX003 (ip), vehicle: saline with Tween-80); 0 of 6 under setting [5]; 0 of 6 under setting [6]; 0 of 6 under setting [7].
For the compound `O=C(Nc1ccc(Br)cc1)Oc1ccc(-c2ccccc2)cc1`, the survivor count by setting is: (T/C endpoint: mean survival time, dose: 100.0 mg/kg/injection, schedule: Q01DX009 (ip), vehicle: Klucel (hydroxypropylcellulose) (HPC)) 6 of 6; (T/C endpoint: mean survival time, dose: 200.0 mg/kg/injection, schedule: Q01DX009 (ip), vehicle: Klucel (hydroxypropylcellulose) (HPC)) 6 of 6.
Regarding `BrCc1ccc(Br)cc1`, the survivor count (T/C endpoint: mean survival time, dose: 400.0 mg/kg/injection, schedule: Q01DX001 (ip), vehicle: carboxymethylcellulose (CMC)) is recorded as 4 of 4.
In the case of `CC(C)(NC(=O)NCCCl)c1ccccc1`, the survivor count is, setting by setting: under setting [3], 3 of 6; under setting [4], 0 of 6.
Turning to `Cc1ccc(Cl)cc1NC(=O)Nc1ccccc1F`, the survivor count under setting [5] is given as 6 of 6, the survivor count under setting [6] is reported as 6 of 6 and the survivor count under setting [7] was 6 of 6.
For the compound `CCCCCCCCCCCCCCCCCCS(=O)(=O)CCCl`, the survivor count (T/C endpoint: mean survival time, dose: 100.0 mg/kg/injection, schedule: Q04DX003 (ip), vehicle: Klucel (hydroxypropylcellulose) (HPC)) is listed as 6 of 6.
Turning to `Cn1c(=O)c2c(nc(OCC3CCCO3)n2C)n(C)c1=O` (stereo not drawn), the survivor count under setting [4] is on record as 1 of 4.
On to `CN=C(NCCCOC)c1ccc(NC(=O)c2ccc(C(=O)Nc3ccc(C(=NC)NCCCOC)cc3)cc2)cc1`, for which the T/C was 136 % of control (T/C endpoint: mean survival time, dose: 6.6 mg/kg/injection, schedule: Q01DX Z (ip), vehicle: carboxymethylcellulose (CMC)); 144 % of control (T/C endpoint: mean survival time, dose: 10.0 mg/kg/injection, schedule: Q01DX Z (ip), vehicle: saline); 132 % of control (T/C endpoint: mean survival time, dose: 15.0 mg/kg/injection, schedule: Q01DX Z (ip), vehicle: saline); 129 % of control [5 of 6 alive] (T/C endpoint: mean survival time, dose: 22.5 mg/kg/injection, schedule: Q01DX Z (ip), vehicle: carboxymethylcellulose (CMC)). In addition, the survivor count (T/C endpoint: mean survival time, dose: 22.5 mg/kg/injection, schedule: Q01DX Z (ip), vehicle: saline) is 1 of 6; the survivor count (T/C endpoint: mean survival time, dose: 30.0 mg/kg/injection, schedule: Q01DX Z (ip), vehicle: saline) is listed as 1 of 6; the survivor count (T/C endpoint: mean survival time, dose: 33.7 mg/kg/injection, schedule: Q01DX Z (ip), vehicle: carboxymethylcellulose (CMC)) is 2 of 6; the survivor count (T/C endpoint: mean survival time, dose: 35.0 mg/kg/injection, schedule: Q01DX Z (ip), vehicle: saline) is given as 0 of 6; the survivor count (T/C endpoint: mean survival time, dose: 55.0 mg/kg/injection, schedule: Q01DX Z (ip), vehicle: saline) is listed as 0 of 6; the survivor count (T/C endpoint: mean survival time, dose: 60.0 mg/kg/injection, schedule: Q01DX Z (ip), vehicle: saline) is listed as 0 of 6. Also, the survivor count was 0 of 6 (T/C endpoint: mean survival time, dose: 120.0 mg/kg/injection, schedule: Q01DX Z (ip), vehicle: saline) and 1 of 6 (T/C endpoint: mean survival time, dose: 960.0 mg/kg/injection, schedule: Q01DX Z (oral), vehicle: saline).
`O=C(Nc1ccc(OP(=O)(O)O)cc1)c1ccc(C(=O)Nc2ccc(OP(=O)(O)O)cc2)cc1`: the survivor count is listed as 1 of 6 (T/C endpoint: mean survival time, dose: 37.5 mg/kg/injection, schedule: Q01DX Z (ip), vehicle: water); 0 of 6 (T/C endpoint: mean survival time, dose: 75.0 mg/kg/injection, schedule: Q01DX Z (ip), vehicle: water); 0 of 6 (T/C endpoint: mean survival time, dose: 150.0 mg/kg/injection, schedule: Q01DX Z (ip), vehicle: water).

(Values after PubChem BioAssay AID248 (DTP/NCI, 2004).)
